# Experimental data: PubChem BioAssay AID602196 (INSERM, 2012)
# Test: 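Modifiers of cisplatin sensitivity in A549 cells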
# Cell system: human A549 lung cancer cells
# Knock-down reagent: siRNA pair against human genes
# Timing: 48 h transfection before cisplatin; time from cisplatin to read-out not stated
# Treatment: cisplatin at a dose killing half of control-siRNA cells; exact dose and duration not given
# Measured: 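Cisplatin cell death as a shift from the 50% death seen with control siRNA; siRNAs toxic or growth-blocking alone scored 0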
# Direction: two-siRNA summed score (-2 to +2): higher = both siRNAs protect from cisplatin killing; -2 means both sensitise; mean protection from cisplatin (shift in death): higher = protection from cisplatin killing
# Rule for the call: 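siRNAs harmful alone (LDH or WST-1) get 0; others get +1 for less and -1 for more cisplatin killing; genes are active when the two siRNAs give the same sign, summing to ±2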
# Calls: active = both siRNAs shift cisplatin killing the same way; inactive = no consistent shift, or siRNA harmful alone
# The whole screen tested about 23,000 reagents; shown is a part drawn at random. Of all reagents, 455 (2%) are marked active. 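Active includes both protection and sensitisation; some change values fall well beyond the stated -50 to +50 range.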 Entries without a mark were called inactive. Not all columns of the deposit are shown. No sequences are given here. Not stated in the record: the amount of reagent.
target,two-siRNA summed score (-2 to +2),mean protection from cisplatin (shift in death) (%)
ERN1,0,1.4
TRIM17,0,-9.5
GK5,0,9.7
MACIR,0,9.8
LOC389301,0,-3.8
INTS15,0,-3.8
LOC440696,0,8.7
MELTF,-1,-10.8

Next part (2 carried over from the part before).
target,two-siRNA summed score (-2 to +2),mean protection from cisplatin (shift in death) (%)
LOC440696,0,8.7
MELTF,-1,-10.8
SLC12A5,0,7.8
GABRA4,1,10.1
TTC14,0,-3.5
LOC389953,1,7.2
ZNF317,0,4.3
LOC391035,0,30.3
OR2C3,0,2
PRDM2,0,10.5
DALRD3,0,-2.2
ARHGAP24,-1,-6.1
RHBDD1,1,11.3
LOC392360,1,13.3
MTIF2,1,3.7
PTPRT,0,4.5
TOMM20L,0,-3.2
